Source: PubChem BioAssay AID504444 (National Center for Advancing Translational Sciences (NCATS), 2011)
The campaign covered roughly 360,000 compounds. About 7,500 (2.1%) were called active. The shares of active, inactive and inconclusive entries below differ from those in the screen. Calls come from the whole dose curve; as a rule, active = well fitted inhibition curve with a large enough effect; inconclusive = small, poorly fitted or top-dose-only effect, or effect the other way; inactive = flat fitted curve, though single readings scatter. A potency beside an inconclusive call is a rough fit, not a confirmed value.

Experiment: Nrf2 qHTS screen for inhibitors; note: nearly all actives have a fitted effect of over 60% in size
Details: A549 ARE-Fluc reporter, luciferase luminescence, 18-24 h; series mostly up to 46 µM
Procedure, shortened: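 A549 ARE_Fluc cells (5000/well, 5% FBS OPTI-MEM) pre-incubated 2 h, then treated with compounds 18-24 h at 37C/5% CO2 in concentration-response. CellTiter-Fluor viability read first; BugLite luciferase luminescence after 15 min at room temperature gives Nrf2 activity.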
Potency is the fitted concentration of half-maximal effect.

With O=C(CSc1n[nH]c(-c2ccccn2)n1)Nc1cccc(Cl)c1 as the compound, how does the Potency read?
The Potency was inconclusive: 20.6 µM [falling, partial curve].

For COc1ccccc1C(=O)NC(=O)Nc1ccc(-n2nc(C(F)(F)F)cc2C(F)(F)F)cc1, which Potency is on record?
The Potency was inconclusive: 2.59 µM [falling, partial curve, poor fit].

With COC(=O)c1cc(C(=O)NCc2ccccc2)c(=O)[nH]c1C as the compound, how does the Potency read?
The Potency was inconclusive: 20.6 µM [activator, single point].

For CN(c1cccc(NC(=O)CN(c2ccc(F)cc2)S(C)(=O)=O)c1)S(C)(=O)=O, which Potency is on record?
The Potency was “inactive”.

For COc1ccc(-c2ccc3c(N)c(C(=O)Nc4cccc(C)c4)sc3n2)cc1, which Potency is on record?
The Potency was inconclusive: 4.61 µM [activator, partial curve, poor fit].

For O=C(Nc1ccc2nccnc2c1)N1CCCCCC1, which Potency is on record?
Its Potency is inconclusive: 20.6 µM [activator, single point].

With CCC(=O)Nc1sc(C(=O)Nc2ccccc2)c(C)c1C(=O)OC as the compound, how does the Potency read?
The Potency was inconclusive: 6.51 µM [activator, single point].

With COc1ccc(CN(C(=O)Cc2c[nH]c3ccccc23)C(C(=O)NC2CCCCC2)c2ccc(C)o2)cc1 (stereo unspecified) as the compound, how does the Potency read?
Its Potency is active: 11.6 µM.

Which Potency does the source give for O=C(Nc1cc2c3c(c1)CC(=O)N3CCC2)c1c(F)cccc1F here?
Its Potency is inconclusive: 14.6 µM [falling, single point].

Which Potency does the source give for CCOc1ccc(-c2nc(CCl)cs2)cc1 here?
Its Potency is inconclusive: 1.84 µM [activator, full curve].

Which Potency does the source give for O=c1[nH]cnc2nn(-c3ccccc3)nc12 here?
The Potency was inconclusive: 16.4 µM [activator, partial curve, poor fit].

Which Potency does the source give for COc1ccc(/C=N\NC(=O)c2sccc2C)cc1Cn1nc(C)cc1C here?
The Potency was “inactive”.

With COc1cccc(NC(=O)Nc2cccnc2)c1 as the compound, how does the Potency read?
Its Potency is inconclusive: 29.1 µM [activator, single point].

For Cc1ccc(C)c(NC(=S)c2ccc3ccccc3n2)c1, which Potency is on record?
Its Potency is inconclusive: 10.3 µM [activator, partial curve].

Which Potency does the source give for CC(C)C(NC(=O)C1(NC(=O)OCc2ccccc2)CCCC1)C(=O)O (stereo unspecified) here?
The Potency was “inactive”.

Which Potency does the source give for CCOC(=O)COn1c(=O)c(-c2ccc(C)cc2)[n+]([O-])c2ccccc21 here?
The Potency was inconclusive: 29.1 µM [activator, single point].

With Cc1ccc(C)n1-c1nnc(N2CCCC(C(=O)NCc3ccccc3)C2)s1 (stereo unspecified) as the compound, how does the Potency read?
The Potency was “inactive”.

Which Potency does the source give for Cc1ccc(NC(=O)c2cccs2)cc1[N+](=O)[O-] here?
Its Potency is inconclusive: 16.4 µM [falling, partial curve, poor fit].

For CCOC(=O)c1ccccc1NC(=O)N(Cc1ccco1)C1CCN(C(C)=O)CC1, which Potency is on record?
The Potency was inconclusive: 14.6 µM [activator, partial curve, poor fit].

For O=C(Nc1ccc(F)cc1F)c1cc(Cl)sc1Cl, which Potency is on record?
Its Potency is inconclusive: 29.1 µM [activator, single point].

Which Potency does the source give for Cc1ccc(NC(=O)c2ccc(Br)cc2)c(C(=O)c2ccccc2)c1 here?
Its Potency is inconclusive: 6.51 µM [falling, single point].

With C=C(C)c1cccc(C(C)(C)NC(=O)Nc2ccc(OC)nc2)c1 as the compound, how does the Potency read?
Its Potency is inconclusive: 29.1 µM [falling, single point].

Which Potency does the source give for CCCCCCCCNC(=O)c1cccnc1SCC(=O)Nc1ccccc1OC here?
The Potency was inconclusive: 20.6 µM [falling, single point].

With Cc1noc(-c2ccc(C(F)(F)F)cc2)c1NC(=O)Nc1ccc(Cl)cc1 as the compound, how does the Potency read?
The Potency was inconclusive: 23.1 µM [falling, single point].

For Cn1ccsc1=NC(=O)c1ccc(=O)[nH]c1, which Potency is on record?
The Potency was inconclusive: 0.164 µM [falling, full curve, poor fit].

Which Potency does the source give for O=c1cc(-c2ccccc2)oc2cc(O)ccc12 here?
Its Potency is “inactive”.

For COc1cc(CC(=O)Nc2cccc(C(F)(F)F)c2)cc(OC)c1OC, which Potency is on record?
Its Potency is inconclusive: 29.1 µM [falling, partial curve, poor fit].

Which Potency does the source give for Cc1cnc(NC(=O)CC2OC(=O)c3ccccc32)s1 (stereo unspecified) here?
Its Potency is “inactive”.

With COc1ccc(CNCc2ccc([N+](=O)[O-])cc2)cc1OC as the compound, how does the Potency read?
Its Potency is inconclusive: 23.1 µM [activator, single point].

For CCOC(=O)Nc1ccc2c(c1)N(C(=O)CN1CCN(C)CC1)c1ccccc1CC2, which Potency is on record?
The Potency was inconclusive: 4.11 µM [falling, full curve, poor fit].

With Cc1ccc(OCC(=O)Nc2sc3c(c2C#N)CC(C)(C)NC3(C)C)cc1 as the compound, how does the Potency read?
The Potency was inconclusive: 25.9 µM [falling, single point].

For COc1ccccc1CCNC(=O)C(=O)NCC1OCCN1S(=O)(=O)c1ccccc1 (stereo unspecified), which Potency is on record?
Its Potency is inconclusive: 0.731 µM [falling, full curve, poor fit].

Which Potency does the source give for CC(C)CC(=O)Nc1ccc(Cl)c(-c2nc3ccccc3[nH]2)c1 here?
The Potency was “inactive”.

Which Potency does the source give for COc1ccc(N2CCN(C(=O)CSc3nnc4c(C)cc5ccccc5n34)CC2)cc1 here?
The Potency was “inactive”.

For COc1ccc(-c2cc3c(nn2)-c2ccccc2C3=O)cc1, which Potency is on record?
The Potency was inconclusive: 1.46 µM [activator, partial curve, poor fit].

With COc1cc(CN2CCN(C(=O)c3ccc(-c4ccccc4)cc3)CC2)cc(OC)c1OC as the compound, how does the Potency read?
The Potency was inconclusive: 23.1 µM [falling, single point].

Which Potency does the source give for COC(=O)C(C(=O)OC)C(CC(=O)c1ccc(C)cc1)c1cc(OC)c(OC)c(OC)c1 (stereo unspecified) here?
The Potency was “inactive”.

With O=C(Nc1ccon1)c1cc2c(s1)CCCCCC2 as the compound, how does the Potency read?
The Potency was inconclusive: 3.26 µM [activator, partial curve, poor fit].

With CC(=O)N1c2ccc(S(=O)(=O)N3CCCC(C(=O)N4CCC(C)CC4)C3)cc2CC1C (stereo unspecified) as the compound, how does the Potency read?
Its Potency is active: 20.6 µM.

For Cc1ccc(OCc2nnc(SCC(=O)c3cccs3)n2-c2ccccc2)cc1C, which Potency is on record?
Its Potency is inconclusive: 13 µM [falling, partial curve].

For CC(C)c1ccc(NC(=O)c2ccc(Br)o2)cc1, which Potency is on record?
Its Potency is inconclusive: 3.26 µM [activator, partial curve, poor fit].

With Cc1cc2cc(CN(Cc3ccco3)C(=S)NCC3CCCO3)c(=O)[nH]c2cc1C (stereo unspecified) as the compound, how does the Potency read?
The Potency was inconclusive: 25.9 µM [falling, partial curve, poor fit].

For O=C(c1ccc(-c2cc3ccccc3oc2=O)cc1)N1CCN(c2ccc(Cl)cc2[N+](=O)[O-])CC1, which Potency is on record?
The Potency was inconclusive: 18.4 µM [falling, single point].

For COc1cc(/C=C(/C#N)c2ccccc2)ccc1Oc1ccc([N+](=O)[O-])cn1, which Potency is on record?
The Potency was active: 14.6 µM.

For Cc1ccc2c(CC(=O)OCc3nc(N)nc(Nc4ccccc4C)n3)coc2c1, which Potency is on record?
Its Potency is inconclusive: 29.1 µM [activator, single point].

With COc1ccccc1-n1c(SCC(=O)Nc2ccc(C)cc2)nc(O)cc1=O as the compound, how does the Potency read?
The Potency was “inactive”.

For COc1cc(NC(=O)c2ccc3c(c2)OCO3)ccc1NC(=O)C(C)C, which Potency is on record?
Its Potency is inconclusive: 4.11 µM [falling, full curve, poor fit].

For O=C(NCCN=C1NS(=O)(=O)c2ccccc21)c1ccco1, which Potency is on record?
Its Potency is inconclusive: 0.0082 µM [falling, full curve, poor fit].

For Cc1cc2c(NC(=O)Nc3ccc(C(F)(F)F)cc3)cccc2nn1, which Potency is on record?
Its Potency is inconclusive: 18.4 µM [falling, single point].

With CC(C)CNC(=O)c1cccc(NC(=O)COc2ccc([N+](=O)[O-])cc2)c1 as the compound, how does the Potency read?
The Potency was inconclusive: 13 µM [falling, partial curve, poor fit].

Which Potency does the source give for O=C(CCCn1c2ccccc2c(=O)c2ccccc21)Nc1ccc(F)cc1Cl here?
The Potency was inconclusive: 18.4 µM [falling, single point].

With Cc1cc(C)cc(N(CC(=O)N2CCC(C)CC2)S(=O)(=O)c2ccccc2)c1 as the compound, how does the Potency read?
Its Potency is “inactive”.

For Nc1c(C(O)(C(F)(F)F)C(F)(F)F)cc(C(O)(C(F)(F)F)C(F)(F)F)c2ccccc12, which Potency is on record?
The Potency was active: 14.6 µM.

For Cc1nc(-c2ccc(F)cc2)c(CC(=O)Nc2cc(S(=O)(=O)N3CCCCC3)ccc2C)s1, which Potency is on record?
The Potency was inconclusive: 32.6 µM [falling, single point].

For O=C(c1ccco1)n1nc(-c2ccccc2)nc1NCc1ccccc1Cl, which Potency is on record?
Its Potency is “inactive”.

Which Potency does the source give for O=[N+]([O-])c1ccc(C=Nc2cccc3ccccc23)s1 here?
The Potency was “inactive”.

With Cc1cccc(-c2nc(Cn3c(SCc4cc(C)ccc4C)nc4ccncc43)c(C)o2)c1 as the compound, how does the Potency read?
The Potency was inconclusive: 29.1 µM [falling, single point].

For CCOC(=O)C1(CCc2ccccc2)CCN(C(=O)CCc2cnccn2)CC1, which Potency is on record?
Its Potency is inconclusive: 9.2 µM [activator, partial curve].

For COc1cccc(-c2cc(C(=O)N3N=C(C)CC3(O)C(F)F)c3ccccc3n2)c1 (stereo unspecified), which Potency is on record?
The Potency was inconclusive: 20.6 µM [falling, partial curve, poor fit].

With CCOC(=O)c1c(NC(=O)C(C)Sc2c[nH]c3ccccc23)sc2c1CCC2 (stereo unspecified) as the compound, how does the Potency read?
The Potency was inconclusive: 16.4 µM [falling, partial curve, poor fit].

Which Potency does the source give for COc1ccc(CCNC(=O)c2nn(C)c3c2CSc2ccccc2-3)cc1OC here?
The Potency was inconclusive: 11.6 µM [falling, single point].

Which Potency does the source give for CCN1CCN(c2ccc(S(=O)(=O)N3CCOCC3)cc2NC(=O)c2ccc(OCC(C)C)cc2)CC1 here?
The Potency was active: 9.2 µM.

Which Potency does the source give for Cc1cc(C)n2c(Br)c(CSc3nc4ccccc4s3)nc2n1 here?
Its Potency is inconclusive: 4.11 µM [activator, partial curve].

Which Potency does the source give for CN(Cc1ccccc1)C(=O)CCNC(=O)Cn1cnc2ccccc2c1=O here?
Its Potency is inconclusive: 1.84 µM [falling, full curve, poor fit].

Which Potency does the source give for CCOc1ccccc1CN(CCc1ccc2c(c1)OCO2)Cc1cccc(OC)c1OC here?
Its Potency is “inactive”.

With O=c1c(-c2nc3ccccc3s2)cccn1Cc1ccc(Cl)c(Cl)c1 as the compound, how does the Potency read?
The Potency was inconclusive: 23.1 µM [falling, partial curve, poor fit].
